From article PMC12040169 (PLOS Biology, 2025)
Some of the results follow.

System: T1, CTL2-GFP (C. trachomatis L2/434/Bu, GFP-expressing)
T1 construct: L2/434/Bu, GFP-expressing
Design: species or system HeLa; Intracellular C. trachomatis growth in HeLa cells, bulk GFP fluorescence relative to DMSO
Conditions: bulk GFP, single well; 28.5 h, 10 µM; inhibitor

SMILES | % of control remaining [%]
N/C(=N\C(=O)CN1C(=O)C2CCCCC2C1=O)Nc1nc2ccccc2s1 (centres unmarked) [CBK263877] | 99.0417
O=C1Cc2c(ccc3ccccc23)C2(CCN(CC3CCCCO3)CC2)N1 (centres unmarked) [CBK039395] | 110.641
C#CCNC(=O)c1nn(Cc2ccc(S(=O)(=O)N(C)OC)cc2)c2ccccc12 [CBK047985] | 105.46
CC(Cn1cnc2ccccc21)C(=O)N1CCCCC1CN(C)C (centres unmarked) [CBK282191] | 138.499
Cc1cc(C(=O)NCCn2ccc(C)n2)c2cccc(Cl)c2n1 [CBK282549] | 128.328
Cc1ccccc1N1CCC(CNC(=O)CCc2ccnn2C)C1 (centres unmarked) [CBK306543] | 156.161
O=c1[nH]c(=O)c2cc(S(=O)(=O)NC3(c4ccccc4)CCCC3)ccc2[nH]1 [CBK286378] | 110.739
CS(=O)(=O)Nc1cccc(C(=O)O)c1 [CBK160404] | 103.121
COCCSc1nnc(NS(=O)(=O)c2ccc(F)cc2)s1 [CBK144919] | 119.214
O=C(CSc1nnc(-c2ccco2)[nH]1)Nc1cccc(Cl)c1 [CBK293990] | 112.591
O=C1CN(C(=O)NC(c2ccccc2)c2ccccc2)CCN1 [CBK155853] | 161.052
CCOC(=O)c1c(N)sc(C(=O)Nc2cccc([N+](=O)[O-])c2)c1C [CBK066829] | 150.875
CCOc1ccc(C(=O)Nc2ccc(-c3nc4cc(C)c(C)cc4o3)cc2)cc1[N+](=O)[O-] [CBK262818] | 100
O=C1CCC(=O)N1CCOc1nccnc1OC1CCN(Cc2ccc(C(F)(F)F)cc2)CC1 [CBK084341] | 107.38
CCOC(=O)C1(C2CCCCC2)CCN(C(=O)c2cccc(C(F)(F)F)c2)CC1 [CBK136920] | 98.2335
O=C(C1CCCN(C2CCN(Cc3ccccc3)CC2)C1)N1CCN(c2ccccc2)CC1 (centres unmarked) [CBK265440G] | 124.658
O=C(Nc1ccc2nc(-c3ccc(-c4nc5ccc(NC(=O)c6cccs6)cc5[nH]4)cc3)[nH]c2c1)c1cccs1 [CBK261590] | 95.8766
COC(=O)c1ccsc1NC(=O)CN1CCN(Cc2ccc3c(c2)OCO3)CC1 [CBK267940] | 110.497
O=C(NCc1cccnc1-n1cccn1)c1c[nH]c(C(=O)N2CCCC2)c1 [CBK298263] | 112.737
COc1ccc(C(C)NC2CCN(c3ccccn3)CC2)cc1F (centres unmarked) [CBK304146] | 117.428
COC(=O)c1ccccc1OC(=O)COc1ccc(Cl)cc1Br [CBK268733] | 138.052
Cc1ccc2c(c1)cc(C(=O)N1CCC(C(=O)NCCc3ccc(Cl)cc3)C1)n2C (centres unmarked) [CBK285926] | 120.934
O=C(C[C@@H]1O[C@H](CNS(=O)(=O)c2ccccc2)[C@@H](O)[C@H]1O)N1CCc2ccccc21 [CBK288916] | 111.15
Cc1ccc(-n2c(SCC(=O)Nc3ccccc3C#N)nnc2-c2cc(Br)ccc2O)c(C)c1 [CBK268743] | 76.2951
COC1C(O)C(CO)OC1n1cc(F)c(=S)[nH]c1=O (centres unmarked) [CBK201168] | 152.523

SMILES | % of control remaining [%]
O=c1c(-c2nc3ccccc3s2)coc2c(CN3CCCCC3)c(O)ccc12 [CBK262161] | 104.129
Cc1c(C(=O)NC2CCCN(c3ncccn3)C2)cnn1C(C)(C)C (centres unmarked) [CBK305652] | 115.199
CCOc1ccc(-c2cncc(N[C@@H](C)c3ccccc3)n2)cc1 [CBK065720] | 160.553
CCc1c(C)nc2c(C(=O)NCCOC)cnn2c1C [CBK162143] | 106.571
Cc1c(C(=O)Nc2sc3c(c2C(=O)NCc2cccnc2)CCC3)oc2ccccc12 [CBK269491] | 159.642
CC(=O)Nc1cccc(C(=O)OCC(=O)N2CCC(C)CC2)c1 [CBK305905] | 110.162
CN(C)CCN(C)c1cccc(/C=C/c2ccccc2)n1 [CBK036826] | 125.112
CC(C)(C)OC(=O)N1CCN(c2ccnc(Cl)n2)CC1 [CBK002095] | 96.207
COCC(=O)N1CC[C@H](c2nnc(-c3ccc(C)cc3)o2)C1 [CBK289410] | 116.869
CC(=O)Nc1ccc(S(=O)(=O)Nc2ccc(C(=O)N3CCOCC3)cc2)cc1 [CBK034564] | 87.8908
COC(=O)NC(NC(=O)OC)C(=O)c1ccccc1 [CBK020208] | 125.105
COc1ncccc1-c1cccnc1-n1ccnc1 [CBK176872] | 137.213
NNC(=O)Nc1ccc(Cc2ccc(NC(=O)NN)cc2)cc1 [CBK262017] | 138.561
COc1ccc([C@H]2CN(C(C)=O)[C@@H]3CCN(CC4CC4)C[C@H]23)cc1 [CBK285502] | 108.131
CC(Sc1ccccc1)C(=O)NCCN1CCOCC1 (centres unmarked) [CBK269332] | 133.505
Cc1noc(C)c1S(=O)(=O)NCc1cc(C)n(C)n1 [CBK062155] | 91.814
O=C(Nc1ccccc1)NC1CC2CCC(C1)N2Cc1nnnn1Cc1ccco1 (centres unmarked) [CBK085071] | 120.143
COc1ccc(CC(=O)N2CCC(c3cccc(Cc4ccccc4C)n3)CC2)cc1 [CBK286232] | 110.994
C[C@]12CN(C(=O)C3CC3)C[C@H]1NC(=O)c1ccccc1C2=O [CBK281660] | 105.394
O=[N+]([O-])c1ccccc1CN1CCN(Cc2cccc(Oc3ccccc3)c2)CC1 [CBK264307] | 110.001
CCc1cc(O)n2nc(C)c(-c3cccs3)c2n1 [CBK283730] | 125.007
O=C(CC1c2ccccc2Oc2ccccc21)Nc1ccc(Cc2ccncc2)cc1 [CBK263271] | 110.81
O=C1CSC2(CCCCC2)N1Nc1ccccc1 [CBK020047] | 111.174
CC(C)c1ccc(S(=O)(=O)Nc2cc(F)c(F)c(F)c2)cc1 [CBK045028] | 60.6031
O=P(O)(CN1CCCCCC1)CN1CCCCCC1 [CBK262311] | 100

SMILES | % of control remaining [%]
O=S(=O)(c1ccccc1)c1nc(-c2ccco2)oc1NCc1cccnc1 [CBK287610] | 115.8
C=CCNC(=O)c1ccc(-c2cccc(N(C)C)c2)nc1NCc1cccnc1 [CBK076566] | 170.873
CCn1cc(C(=O)O)c(=O)c2cnc(N3CCN(C(=S)Nc4ccc5c(c4)OCO5)CC3)nc21 [CBK267930] | 100.419
CC(=O)N1CCC[C@H]2NC(=O)CNC(=O)C3(C/C=C/C[C@H]21)CCN(Cc1cc[nH]n1)CC3 [CBK292164] | 90.1052
COc1ccc(Oc2nccnc2N2CCN(CCOc3ccccc3)CC2)cc1OC [CBK083061T] | 130.118
CN1CCN(C)C(COc2nc3cc(Cl)c(Cl)cc3nc2N2CCCC2)C1 (centres unmarked) [CBK115294] | 107.274
Cc1cc(C(=O)N2CCc3c(sc4ncnc(N)c34)C2)c(C)s1 [CBK304980] | 137.869
CCCOc1ccc(-c2nn(-c3ccccc3)cc2/C=C2\SC(=S)N(CC(=O)O)C2=O)cc1 [CBK264525] | 107.116
COc1cc(NC(=O)N2CCC(C(=O)O)CC2)cc(OC)c1OC [CBK156076] | 95.0031
Cc1ccccc1Cc1cccc(C2CCN(S(=O)(=O)c3cn(C)nc3C)CC2)n1 [CBK286141] | 109.118
COc1ccc(C(C)C)cc1-c1nccnc1N[C@@H](CO)C(C)C [CBK036711] | 108.05
CCOC(=O)N/N=C1\CCCCC1CC (centres unmarked) [CBK016112] | 143.22
CC(=O)Nc1ccc(C(=O)Nc2ccc(S(N)(=O)=O)cc2)cc1 [CBK261600] | 115.782
COC(=O)Nc1ncc(CN2C(=O)c3ccccc3C2=O)s1 [CBK268434] | 82.0335
COCC(=O)Nc1ccc([C@@H](O)[C@H]2COCC(=O)N2C)cc1 [CBK289058] | 143.563
NS(=O)(=O)c1ccc(NCc2ccccc2OCc2ccccc2F)cc1 [CBK268935] | 101.752
O=C(Cc1ccccc1F)N1CCC(n2cnc3cccnc32)CC1 [CBK283635] | 122.647
COc1ccc(-c2ccc(OC)cc2C(=O)Nc2cccc(-n3cccn3)c2)cc1 [CBK285818] | 139.216
c1ccc(-c2onc3cc4c(cc23)OCCO4)cc1 [CBK287869] | 116.247
CCCc1nnc2sc(C3CCC(=O)N(CC(C)C)C3)nn12 (centres unmarked) [CBK307207] | 132.545
CC(Sc1nc2ccccc2[nH]1)C(=O)O (centres unmarked) [CBK263063] | 99.2591
Oc1ccc(-c2cncc(-c3ccc(F)cc3)n2)cc1 [CBK123794] | 120.618
Cc1nnc(SCc2cc(=O)[nH]c(N3CCN(C)CC3)n2)s1 [CBK270106] | 156.188
CCOc1cc(/C=N/O)c(Br)cc1O [CBK288359] | 170.865

Individual results from above:
Entry of `Cc1cc(C(=O)N2CCc3c(sc4ncnc(N)c34)C2)c(C)s1` [CBK304980] under % of control remaining [%]: 137.869
Entry of `CCOc1cc(/C=N/O)c(Br)cc1O` [CBK288359] under % of control remaining [%]: 170.865

Three of the compounds above, as tab-separated lines.
SMILES	% of control remaining [%]
O=S(=O)(c1ccccc1)c1nc(-c2ccco2)oc1NCc1cccnc1 [CBK287610]	115.8
Cc1ccccc1Cc1cccc(C2CCN(S(=O)(=O)c3cn(C)nc3C)CC2)n1 [CBK286141]	109.118
COc1ccc(C(C)C)cc1-c1nccnc1N[C@@H](CO)C(C)C [CBK036711]	108.05
